Percent effect of library compounds

By UniProt entry, the sequences of proteins in these tests, tags left out. Residues count along the entry.
UniProt Q8IDJ8, 1-583: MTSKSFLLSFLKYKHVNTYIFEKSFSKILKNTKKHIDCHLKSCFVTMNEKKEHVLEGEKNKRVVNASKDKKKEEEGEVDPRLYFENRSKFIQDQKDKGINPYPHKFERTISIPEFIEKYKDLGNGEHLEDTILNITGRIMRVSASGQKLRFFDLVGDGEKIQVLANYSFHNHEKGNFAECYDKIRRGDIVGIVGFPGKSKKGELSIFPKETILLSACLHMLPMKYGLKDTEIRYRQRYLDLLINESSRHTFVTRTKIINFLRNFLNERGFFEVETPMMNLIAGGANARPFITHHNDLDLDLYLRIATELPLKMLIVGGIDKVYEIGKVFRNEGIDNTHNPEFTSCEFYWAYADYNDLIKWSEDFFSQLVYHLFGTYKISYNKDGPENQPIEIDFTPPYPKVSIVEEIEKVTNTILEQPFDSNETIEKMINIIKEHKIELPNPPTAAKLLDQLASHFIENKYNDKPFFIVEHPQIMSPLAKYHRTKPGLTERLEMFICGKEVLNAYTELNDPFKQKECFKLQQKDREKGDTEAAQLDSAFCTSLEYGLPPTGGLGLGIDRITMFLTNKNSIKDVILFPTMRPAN

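Lysine-tRNA ligase, Plasmodium falciparum 3D7 (UniProt Q8IDJ8). Enzyme assay of the cytosolic lysyl-tRNA synthetase in 384-well plates, read by luminescence. Tested at 30 µM. Higher reads as stronger inhibition, judged from the few compounds that gave an IC50. Of about 69,000 compounds tested this way, about 49 (0.071%) reached 50% or more in at least one test.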

Each number is a percent effect as filed. The record does not define 0% and 100%; most values in the screen are far below 50% and negative numbers occur (in some assays of this library far below -100). This is an unselected part of the compounds tested.

With CNc1ncc2c(n1)CN(Cc1ccc(Cl)cc1)C2=O the screen gave 13.72%. For OCc1nnc2n1CCN(c1cnccn1)C2 the result was 2.703%. With Cn1cc(CC(=O)N2CCCC(n3cncn3)C2)cn1 (configuration not stated) the screen gave -0.3555%. Nc1nc2c(c(NC(=O)Nc3cccc(Cl)c3)n1)CCCC2 read -1.46%. With CCOCCN1CCc2cncnc2C1 the screen gave 9.481%. COc1ccccc1-c1cc(C(=O)Nc2nc[nH]n2)[nH]n1 read 5.338%. Result for Cc1ccc(C(N)c2cccc(S(C)(=O)=O)c2)cc1 (configuration not stated) was 8.314%.

With CCc1ccc(C(=O)O)cc1S(=O)(=O)Nc1ccc(=O)n(C)c1 the screen gave 0.9849%. O=C(c1cnn2c1OCCC2)N1CCN(C(=O)C2CCCO2)CC1 (configuration not stated) gave 1.198%. Cc1nc2c(cc1C(=O)O)CCN(CC1CC1)CC2 gave 2.639%. For COCCN(Cc1nccs1)C(=O)c1cc(-c2ccc(C)o2)n[nH]1 the result was 3.942%. O=C(CC1CC1)N1C[C@@H]2CCN(c3cnccn3)C[C@@H]2C1 gave 6.329%. O=C(O)C1(n2cccn2)CCN(Cc2nc(-c3ccccc3)no2)CC1 gave -1.694%. CC(C)(O)CN1CCN(C(=O)c2sccc2C#N)CC1 read 0.6929%.

Result for CSCCC(C)NC(=O)N1CCSC(C)(C)C1 (configuration not stated) was 1.584%. For CN(c1cccnn1)[C@@H]1CC[C@@H]2CN(Cc3cccc(C(=O)O)c3)C[C@@H]21 the result was 1.486%. With Cc1ccccc1CC1(CO)CCCN(c2ncncc2C(C)C)C1 (configuration not stated) the screen gave 2.463%. Cc1cc(C2CCCN(Cc3ncc(C(C)C)o3)C2)n[nH]1 (configuration not stated) read 4.976%. For O=C(NCC(O)c1ccccc1)Nc1cccs1 (configuration not stated) the result was 1.634%. Result for CCc1cnc(NCC(CC)N2CCOCC2)nc1 (configuration not stated) was -0.9883%. For Cc1ccc(C(=O)N2C[C@@H]3CCN(c4cccnc4)C[C@@H]3C2)cn1 the result was -2.043%.

Result for CC(C)c1cc(C(=O)N2CCN(CC3CC3)[C@@H]3CS(=O)(=O)C[C@@H]32)on1 was 0.2298%. For Cc1cccc(C(C(=O)NC(C)(C)CN2CCOCC2)N(C)C)c1 (configuration not stated) the result was -2.296%. CNC(=O)c1cc(-n2ccnc2-c2cnc(N(C)C)nc2)ccc1OC gave 2.241%. Result for Cc1cc(C)n(CC2CCCCN2CC(=O)NC2CCOCC2)n1 (configuration not stated) was -1.996%. Result for CCC(=O)N1CCN(C(=O)c2ccc(OC)o2)[C@H]2CS(=O)(=O)C[C@H]21 was -2.319%. Result for Cc1nc(CCCNC(=O)C2CC(=O)N(C3CC3)C2)sc1C (configuration not stated) was 0.8575%. O=C(CCNC(=O)c1ccoc1)Nc1c(F)cccc1F gave 4.681%.

With COCCNC(=O)c1cccnc1Sc1cc(OC)ccc1OC the screen gave 0.1305%. c1ccc(-c2nnc(CNCCn3cccn3)o2)cc1 read 1.41%. With CCCC1CCN(C(=O)c2coc(COc3ccc(OC)cc3)n2)C1 (configuration not stated) the screen gave 1.434%. CC(C)N(C)[C@@H]1CCN(Cc2ccco2)[C@H]1Cc1ccccc1 gave -4.533%. Cn1ccnc1CN1CCN(CCOc2ccccc2C#N)CC1 gave 0.07181%. With COc1cccc2ccc(CN3CCN(c4ccncc4)CC3)nc12 the screen gave 0.4963%. For COc1ccc(-c2cn3c(n2)CO[C@@H](CNCc2ccccn2)C3)cc1 the result was 7.163%.

Result for CS(=O)(=O)Cc1ccc(OCc2ccc(F)cc2)cc1 was -3.988%. With Cc1noc(CN(Cc2cccc(C#N)c2)Cc2ccco2)n1 the screen gave 3.768%. O=C1CCC(C(=O)N2CCOC(Cc3ccc(F)cc3)C2)=NN1 (configuration not stated) read 2.189%. CN(C)S(=O)(=O)NCc1nn(CCN2CCCC2)c(=O)c2ccccc12 read -2.138%. For CN1CC2(CCCN(C(=O)Cc3cccc(O)c3)C2)OC1=O (configuration not stated) the result was 8.035%. With Cc1ccc(-n2nnc(CC(=O)N3CCN(C(C)C)CC3)c2C)cc1 the screen gave 5.72%. N#Cc1cccc(OCCN2CCCC2C(=O)N2CCSCC2)c1 (configuration not stated) gave 0.2394%.

With Cn1c(=O)c2cc(C(=O)NCc3ccncc3)ccc2n(C)c1=O the screen gave 2.126%. Result for Cc1c(NCC(C)(C)C)cccc1C(=O)N(C)Cc1ncnn1C was -2.838%. CCc1nccn1CCC(=O)N1CCCC1c1cncc(NC)n1 (configuration not stated) gave 1.936%. For N#Cc1ccc(N2CCC(NS(=O)(=O)c3cccs3)CC2)c(F)c1 the result was -2.883%. Result for CCc1noc(C(C)N2CCC(O)CC2)n1 (configuration not stated) was 2.22%. Result for CCN1C(=O)CC(c2cccnc2)C12CCN(c1ncc(F)cn1)CC2 (configuration not stated) was 1.438%. O=C(C1CCCCC1)N1CCC(c2n[nH]c3nccnc23)CC1 gave 3.698%.

Cc1ccc(-n2cnc(Cl)c2CO)cc1 gave 0.09386%. Result for COC(=O)C(O)C1CCN(CCc2ccc(C)cc2)CC1 (configuration not stated) was 5.486%. Result for COc1c(C)cnc(CN2CCCC(Cn3nc(C)nc3C)C2)c1C (configuration not stated) was 2.907%. Cc1cc(C(F)(F)F)nn1CCCNC(=O)C1CCCC1 read 1.774%. For CN1CCc2nc3cc(C(=O)NCc4cccs4)ccc3c(=O)n2CC1 the result was 0.2733%. CC(C(=O)N1CCCN(Cc2cscn2)CC1)N1CCOCC1 (configuration not stated) read 1.855%. With Cc1cccc(N2Cc3nc(=O)n(Cc4cccc(F)c4)n3C2=O)c1 the screen gave 3.815%.

Result for Cn1cc(CN2CCO[C@@H]3CN(C4CCCC4)C[C@@H]3C2)cn1 was 0.815%. With CCCn1nc2c(cc1=O)CN(c1ncnc3ccsc13)CC2 the screen gave 18.62%. For CC(NCc1ccccc1Br)c1ccc2[nH]c(=O)[nH]c2c1 (configuration not stated) the result was 2.456%.

Repeated from the top, 6 entries:

structure	percent effect
CNc1ncc2c(n1)CN(Cc1ccc(Cl)cc1)C2=O	13.72
OCc1nnc2n1CCN(c1cnccn1)C2	2.703
Cn1cc(CC(=O)N2CCCC(n3cncn3)C2)cn1 (configuration not stated)	-0.3555
Nc1nc2c(c(NC(=O)Nc3cccc(Cl)c3)n1)CCCC2	-1.46
CCOCCN1CCc2cncnc2C1	9.481
COc1ccccc1-c1cc(C(=O)Nc2nc[nH]n2)[nH]n1	5.338

The values are deposited in ChEMBL (CHEMBL3988442, “University of Dundee, Small-Polar-MMV Screening Library” (2021)).